Results as given in article PMC5897363.
These are yes or no findings as the source states them, for the method shown. In cells and extracts the contact can be indirect. Some binding calls cover weakened binding; strength is not graded here.

Molecular target: T1, IL-23p19 (mouse (endogenous in epidermis)) (UniProt Q9EQ14)
T1 sequence: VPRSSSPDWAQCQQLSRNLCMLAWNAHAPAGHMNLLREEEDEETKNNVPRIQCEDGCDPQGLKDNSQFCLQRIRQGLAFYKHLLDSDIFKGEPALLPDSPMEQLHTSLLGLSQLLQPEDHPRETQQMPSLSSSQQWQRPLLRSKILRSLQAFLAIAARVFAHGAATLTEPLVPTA
Experiment: co-IP; epidermal cells of 7-8-week-old control and N-WASP ko mice lysed in RIPA buffer, lysate cleaned with Protein A agarose; precipitated with rat anti-mouse IL-23p19 and Protein A agarose; blots for IL-23p19 and IL-12p40

binding: binds
B1: IL-12p40 (protein, UniProt P43432 23-335)
chain: MWELEKDVYVVEVDWTPDAPGETVNLTCDTPEEDDITWTSDQRHGVIGSGKTLTITVKEFLDAGQYTCHKGGETLSHSHLLLHKKENGIWSTEILKNFKNKTFLKCEAPNYSGRFTCSWLVQRNMDLKFNIKSSSSSPDSRAVTCGMASLSAEKVTLDQRDYEKYSVSCQEDVTCPTAEETLPIELALEARQQNKYENYSTSFFIRDIIKPDPPKNLQMKPLKNSQVEVSWEYPDSWSTPHSYFSLKFFVRIQRKKEKMKETEEGCNQKGAFLVEKTSTEVQCKGGNVCVQAQDRYYNSSCSKWACVPCRVRS
